The supplement of paper PMC8728848
The list shows a part of the results.

Columns and labels:
Assay in all cases: glycan array binding signal (z-score within array); higher = stronger binding
Conditions in all cases: glycan notation: IUPAC condensed, linker removed
[1] = target: Gal(b1-3)GlcNAc(b1-6)GalNAc
In short: (§1)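 Columns mapping to the same glycan were averaged after glycan names were converted to IUPAC-condensed notation. The data come from 3228 arrays in the Consortium for Functional Glycomics database, limited to those with an available protein sequence. Binding is reported as a within-array Z-score averaged across arrays of one protein sequence and across linkers.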

[2] = target: Gal(b1-3)GlcNAc(b1-6)[Gal(b1-3)]GalNAc
In short: as §1

Gal(b1-3)GlcNAc6S = target: Gal(b1-3)GlcNAc6S
In short: as §1

[3] = target: Gal(b1-3)[Fuc(a1-4)]GlcNAc
In short: as §1

[4] = target: Gal(b1-3)[Fuc(a1-4)]GlcNAc(b1-2)Man
In short: as §1

[5] = target: Gal(b1-3)[Fuc(a1-4)]GlcNAc(b1-2)Man(a1-3)[Gal(b1-3)[Fuc(a1-4)]GlcNAc(b1-2)Man(a1-6)]Man(b1-4)GlcNAc(b1-4)[Fuc(a1-6)]GlcNAc
In short: as §1

[6] = target: Gal(b1-3)[Fuc(a1-4)]GlcNAc(b1-3)Gal(b1-3)[Fuc(a1-4)]GlcNAc
In short: as §1

[7] = target: Gal(b1-3)[Fuc(a1-4)]GlcNAc(b1-3)Gal(b1-4)[Fuc(a1-3)]GlcNAc
In short: as §1

[8] = target: Gal(b1-3)[Fuc(a1-4)]GlcNAc(b1-6)GalNAc
In short: as §1

[9] = target: Gal(b1-3)[GlcNAc(b1-6)]GalNAc
In short: as §1

[10] = target: Gal(b1-3)[Neu5Ac(a2-6)]GalNAc
In short: as §1

[11] = target: Gal(b1-3)[Neu5Ac(a2-6)]GlcNAc(b1-4)Gal(b1-4)Glc
In short: as §1

[12] = target: Gal(b1-3)[Neu5Ac(b2-6)]GalNAc
In short: as §1

Gal(b1-4)Gal = target: Gal(b1-4)Gal
In short: as §1

[13] = target: Gal(b1-4)GalNAc(a1-3)[Fuc(a1-2)]Gal(b1-4)GlcNAc
In short: as §1

[14] = target: Gal(b1-4)GalNAc(b1-3)[Fuc(a1-2)]Gal(b1-4)GlcNAc
In short: as §1

Gal(b1-4)Glc = target: Gal(b1-4)Glc
In short: as §1

Gal(b1-4)Glc6S = target: Gal(b1-4)Glc6S
In short: as §1

Gal(b1-4)GlcNAc = target: Gal(b1-4)GlcNAc
In short: as §1

[15] = target: Gal(b1-4)GlcNAc(a1-6)Gal(b1-4)GlcNAc
In short: as §1

Gal(b1-4)GlcNAc(b1-2)Man = target: Gal(b1-4)GlcNAc(b1-2)Man
In short: as §1

[16] = target: Gal(b1-4)GlcNAc(b1-2)Man(a1-3)Man(b1-4)GlcNAc(b1-4)GlcNAc
In short: as §1

[17] = target: Gal(b1-4)GlcNAc(b1-2)Man(a1-3)[Gal(b1-4)GlcNAc(b1-2)Man(a1-6)]Man(b1-4)GlcNAc(b1-4)GlcNAc
In short: as §1

[18] = target: Gal(b1-4)GlcNAc(b1-2)Man(a1-3)[Gal(b1-4)GlcNAc(b1-2)Man(a1-6)]Man(b1-4)GlcNAc(b1-4)[Fuc(a1-6)]GlcNAc
In short: as §1

[19] = target: Gal(b1-4)GlcNAc(b1-2)Man(a1-3)[Gal(b1-4)GlcNAc(b1-2)Man(a1-6)][Gal(b1-4)GlcNAc(b1-4)]Man(b1-4)GlcNAc(b1-4)[Fuc(a1-6)]GlcNAc
In short: as §1

[20] = target: Gal(b1-4)GlcNAc(b1-2)Man(a1-3)[Gal(b1-4)GlcNAc(b1-2)Man(a1-6)][GlcNAc(b1-4)]Man(b1-4)GlcNAc(b1-4)[Fuc(a1-6)]GlcNAc
In short: as §1

[21] = target: Gal(b1-4)GlcNAc(b1-2)Man(a1-3)[GlcNAc(b1-2)Man(a1-6)]Man(b1-4)GlcNAc(b1-4)GlcNAc
In short: as §1

[22] = target: Gal(b1-4)GlcNAc(b1-2)Man(a1-3)[GlcNAc(b1-4)][Gal(b1-4)GlcNAc(b1-2)Man(a1-6)]Man(b1-4)GlcNAc(b1-4)GlcNAc
In short: as §1

[23] = target: Gal(b1-4)GlcNAc(b1-2)Man(a1-3)[Man(a1-6)]Man(b1-4)GlcNAc(b1-4)GlcNAc
In short: as §1

[24] = target: Gal(b1-4)GlcNAc(b1-2)Man(a1-6)Man(b1-4)GlcNAc(b1-4)GlcNAc
In short: as §1

[25] = target: Gal(b1-4)GlcNAc(b1-2)Man(a1-6)[GlcNAc(b1-2)Man(a1-3)]Man(b1-4)GlcNAc(b1-4)GlcNAc
In short: as §1

[26] = target: Gal(b1-4)GlcNAc(b1-2)Man(a1-6)[Man(a1-3)]Man(b1-4)GlcNAc(b1-4)GlcNAc
In short: as §1

[27] = target: Gal(b1-4)GlcNAc(b1-2)[Gal(b1-4)GlcNAc(b1-4)]Man(a1-3)[Gal(b1-4)GlcNAc(b1-2)Man(a1-6)]Man(b1-4)GlcNAc(b1-4)GlcNAc
In short: as §1

[28] = target: Gal(b1-4)GlcNAc(b1-2)[Gal(b1-4)GlcNAc(b1-4)]Man(a1-3)[Gal(b1-4)GlcNAc(b1-2)[Gal(b1-4)GlcNAc(b1-6)]Man(a1-6)]Man(b1-4)GlcNAc(b1-4)GlcNAc
In short: as §1

[29] = target: Gal(b1-4)GlcNAc(b1-2)[Gal(b1-4)GlcNAc(b1-4)]Man(a1-3)[GlcNAc(b1-4)][Gal(b1-4)GlcNAc(b1-2)Man(a1-6)]Man(b1-4)GlcNAc(b1-4)GlcNAc
In short: as §1

[30] = target: Gal(b1-4)GlcNAc(b1-2)[Gal(b1-4)GlcNAc(b1-4)]Man(a1-3)[GlcNAc(b1-4)][Gal(b1-4)GlcNAc(b1-2)[Gal(b1-4)GlcNAc(b1-6)]Man(a1-6)]Man(b1-4)GlcNAc(b1-4)GlcNAc
In short: as §1

[31] = target: Gal(b1-4)GlcNAc(b1-2)[Gal(b1-4)GlcNAc(b1-6)]Man(a1-6)[Gal(b1-4)GlcNAc(b1-2)Man(a1-3)]Man(b1-4)GlcNAc(b1-4)GlcNAc
In short: as §1

[32] = target: Gal(b1-4)GlcNAc(b1-2)[Gal(b1-4)GlcNAc(b1-6)]Man(a1-6)[Gal(b1-4)GlcNAc(b1-2)Man(a1-3)]Man(b1-4)GlcNAc(b1-4)[Fuc(a1-6)]GlcNAc
In short: as §1

[33] = target: Gal(b1-4)GlcNAc(b1-2)[Gal(b1-4)GlcNAc(b1-6)]Man(a1-6)[GlcNAc(b1-4)][Gal(b1-4)GlcNAc(b1-2)Man(a1-3)]Man(b1-4)GlcNAc(b1-4)GlcNAc
In short: as §1

[34] = target: Gal(b1-4)GlcNAc(b1-2)[Gal(b1-4)GlcNAc(b1-6)]Man(a1-6)[GlcNAc(b1-4)][Gal(b1-4)GlcNAc(b1-2)[Gal(b1-4)GlcNAc(b1-4)]Man(a1-3)]Man(b1-4)GlcNAc(b1-4)[Fuc(a1-6)]GlcNAc
In short: as §1

[35] = target: Gal(b1-4)GlcNAc(b1-3)Gal(b1-3)GalNAc
In short: as §1

[36] = target: Gal(b1-4)GlcNAc(b1-3)Gal(b1-3)GlcNAc
In short: as §1

[37] = target: Gal(b1-4)GlcNAc(b1-3)Gal(b1-4)Glc
In short: as §1

[38] = target: Gal(b1-4)GlcNAc(b1-3)Gal(b1-4)GlcNAc
In short: as §1

[39] = target: Gal(b1-4)GlcNAc(b1-3)Gal(b1-4)GlcNAc(b1-2)Man(a1-3)[Gal(b1-4)GlcNAc(b1-3)Gal(b1-4)GlcNAc(b1-2)Man(a1-6)]Man(b1-4)GlcNAc(b1-4)GlcNAc
In short: as §1

B1: Epa11 (Candida glabrata) (protein)
chain: MGSSHHHHHHSSGLVPRGSHMASSNAPNYPVGCSPSVGTQLTPGLSLEVYAYPMDGNNGYCWNATYKDPEFPRSGYLKNKLLGKADGVVGPLNFLAKNKDCSPKVDTLPAGFNFPQPITVTNFTMVLFGYLAPKQSGKYTFKLLADDLLLLNLGATNAFDCCNREATKNNLGEFLAYNLWPNQDKNVTVYLEKGVYYPLRLFFNNRDGGSQLDFSYYFNDSPAPLTDFSGMFFSVPDGAECPARI
- glycan array binding signal (z-score) [1]: 0.7
- glycan array binding signal (z-score) [2]: 0.063
- glycan array binding signal (z-score) (Gal(b1-3)GlcNAc6S): -0.031
- glycan array binding signal (z-score) [3]: -0.343
- glycan array binding signal (z-score) [4]: -0.104
- glycan array binding signal (z-score) [5]: 0.265
- glycan array binding signal (z-score) [6]: 2.35
- glycan array binding signal (z-score) [7]: -0.583
- glycan array binding signal (z-score) [8]: 0.96
- glycan array binding signal (z-score) [9]: -0.281
- glycan array binding signal (z-score) [10]: 0.753
- glycan array binding signal (z-score) [11]: 0.3
- glycan array binding signal (z-score) [12]: 1.68
- glycan array binding signal (z-score) (Gal(b1-4)Gal): -0.517
- glycan array binding signal (z-score) [13]: -0.453
- glycan array binding signal (z-score) [14]: -0.449
- glycan array binding signal (z-score) (Gal(b1-4)Glc): -0.879
- glycan array binding signal (z-score) (Gal(b1-4)Glc6S): -0.188
- glycan array binding signal (z-score) (Gal(b1-4)GlcNAc): -0.896
- glycan array binding signal (z-score) [15]: -0.486
- glycan array binding signal (z-score) (Gal(b1-4)GlcNAc(b1-2)Man): -0.157
- glycan array binding signal (z-score) [16]: -0.372
- glycan array binding signal (z-score) [17]: -0.671
- glycan array binding signal (z-score) [18]: 0.196
- glycan array binding signal (z-score) [19]: 0.292
- glycan array binding signal (z-score) [20]: -0.238
- glycan array binding signal (z-score) [21]: -0.246
- glycan array binding signal (z-score) [22]: -1.27
- glycan array binding signal (z-score) [23]: 0.333
- glycan array binding signal (z-score) [24]: -0.165
- glycan array binding signal (z-score) [25]: 0.418
- glycan array binding signal (z-score) [26]: 0.619
- glycan array binding signal (z-score) [27]: -0.412
- glycan array binding signal (z-score) [28]: -0.643
- glycan array binding signal (z-score) [29]: -0.062
- glycan array binding signal (z-score) [30]: -0.968
- glycan array binding signal (z-score) [31]: -2.79
- glycan array binding signal (z-score) [32]: -0.479
- glycan array binding signal (z-score) [33]: -0.232
- glycan array binding signal (z-score) [34]: -0.621
- glycan array binding signal (z-score) [35]: -0.415
- glycan array binding signal (z-score) [36]: -0.054
- glycan array binding signal (z-score) [37]: -0.135
- glycan array binding signal (z-score) [38]: -0.343
- glycan array binding signal (z-score) [39]: 1.27
